PubChem BioAssay AID1259308, NCATS, 2017
Test: 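Knock-downs that increase output of a recombinant reporter protein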 (primary screen). Cells: human HEK293 embryonic kidney cells stably expressing firefly luciferase (HEK-CMV-Luc2-Hygro). Reagent: single siRNA against human genes, 0.8 pmol siRNA per well. Timing: 72 h. Read-out: 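Reporter luminescence and viable-cell signal on separate replicate plates, given as percent of non-targeting control and median/MAD z-scores, plus per-cell luciferase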. Direction: total luciferase, z-score and total luciferase, % of control: higher = more reporter protein produced. Call rule: 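Active when the median/MAD z-score for overall luciferase is greater than 3; a gene was taken forward for validation with new siRNAs if at least two of its three siRNAs passed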. Calls: active = raised luciferase; inactive = no rise.
The whole screen tested about 59,000 reagents; this is a part drawn at random. Over the whole deposit, about 1,510 (2.6%) were called active. 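Calls use total luciferase alone and ignore viability, so some active siRNAs may act by altering cell number.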 Entries without a mark were called inactive. The numbers tell different reagents against one gene apart. Further read-outs or replicates are left out here.

| gene symbol | reagent no. | total luciferase, z-score | total luciferase, % of control |
| --- | --- | --- | --- |
| METTL8 (GeneID 79828) | 1 | 0.36 | 89.1 |
| METTL8 (GeneID 79828) | 2 | 0.159 | 85.1 |
| METTL8 (GeneID 79828) | 3 | -0.103 | 79.8 |
| SELENOI (GeneID 85465) | 1 | -0.635 | 69.3 |
| SELENOI (GeneID 85465) | 2 | -0.0389 | 81.1 |
| SELENOI (GeneID 85465) | 3 | 0.366 | 89.2 |
| PPM1G (GeneID 5496) | 1 | -0.0498 | 80.9 |
| PPM1G (GeneID 5496) | 2 | -0.498 | 72 |
| PPM1G (GeneID 5496) | 3 | 0.893 | 99.6 |
| MTNR1A (GeneID 4543) | 1 | -0.619 | 69.6 |
| MTNR1A (GeneID 4543) | 2 | 0.119 | 84.3 |
| MTNR1A (GeneID 4543) | 3 | -0.822 | 65.5 |
| MTCL3 (GeneID 387104) | 1 | 1.72 | 116 |
| MTCL3 (GeneID 387104) | 2 | 2.27 | 127 |
| MTCL3 (GeneID 387104) | 3 | -1.64 | 49.2 |
| SDHAF4 (GeneID 135154) | 1 | 0.2 | 85.9 |
| SDHAF4 (GeneID 135154) | 2 | 0.307 | 88 |
| SDHAF4 (GeneID 135154) | 3 | 1.61 | 114 |
| ESYT1 (GeneID 23344) | 1 | -0.449 | 73 |
| ESYT1 (GeneID 23344) | 2 | 0.458 | 91 |
| ESYT1 (GeneID 23344) | 3 | -2.04 | 41.4 |
| RPL32P16 (GeneID 646104) | 1 | 0.51 | 92 |
| RPL32P16 (GeneID 646104) | 2 | -0.463 | 72.7 |
| RPL32P16 (GeneID 646104) | 3 | -0.34 | 75.1 |
| JAG2 (GeneID 3714) | 1 | 0.991 | 102 |
| JAG2 (GeneID 3714) | 2 | -0.729 | 67.4 |
| JAG2 (GeneID 3714) | 3 | -1.52 | 51.7 |
| SEC24B (GeneID 10427) | 1 | 0.876 | 99.3 |
| SEC24B (GeneID 10427) | 2 | -0.964 | 62.7 |
| SEC24B (GeneID 10427) | 3 | -0.981 | 62.4 |
| ZNF322P1 (GeneID 387328) | 1 | -2.48 | 32.6 |
| ZNF322P1 (GeneID 387328) | 2 | -2.2 | 38.1 |
| ZNF322P1 (GeneID 387328) | 3 | -0.107 | 79.8 |
| OR6X1 (GeneID 390260) | 1 | 0.0589 | 83.1 |
| OR6X1 (GeneID 390260) | 2 | -0.0103 | 81.7 |
| OR6X1 (GeneID 390260) | 3 | -0.682 | 68.3 |
| FOXP4 (GeneID 116113) | 1 | -0.933 | 63.3 |
| FOXP4 (GeneID 116113) | 2 | -1.61 | 49.9 |
| FOXP4 (GeneID 116113) | 3 | 0.193 | 85.7 |
| CDH9 (GeneID 1007) | 1 | -0.23 | 77.3 |
| CDH9 (GeneID 1007) | 2 | 0.648 | 94.8 |
| CDH9 (GeneID 1007) | 3 | -1 | 61.9 |
| PLAG1 (GeneID 5324) | 1 | -0.365 | 74.6 |
| PLAG1 (GeneID 5324) | 2 | 0.373 | 89.3 |
| PLAG1 (GeneID 5324) | 3 | -0.418 | 73.6 |

Single entries from the entries so far.
Under “total luciferase, % of control”, ZNF322P1 (GeneID 387328) #3 is entered as 79.8
OR6X1 (GeneID 390260) #3, total luciferase, z-score = -0.682
For “total luciferase, z-score”, SEC24B (GeneID 10427) #3 reads -0.981
Entry of FOXP4 (GeneID 116113) #3 in “total luciferase, z-score”: 0.193
ZNF322P1 (GeneID 387328) #2, total luciferase, z-score: -2.2
FOXP4 (GeneID 116113) #2, total luciferase, z-score: -1.61

Next records:
| gene symbol | reagent no. | total luciferase, z-score | total luciferase, % of control |
| --- | --- | --- | --- |
| EXOSC4 (GeneID 54512) | 1 | 0.0123 | 82.1 |
| EXOSC4 (GeneID 54512) | 2 | -1.88 | 44.5 |
| EXOSC4 (GeneID 54512) | 3 | -0.0567 | 80.8 |
| SIGLEC15 (GeneID 284266) | 1 | -1.18 | 58.4 |
| SIGLEC15 (GeneID 284266) | 2 | -0.772 | 66.5 |
| SIGLEC15 (GeneID 284266) | 3 | 1.31 | 108 |
| DTWD1 (GeneID 56986) | 1 | 1.14 | 105 |
| DTWD1 (GeneID 56986) | 2 | -0.261 | 76.7 |
| DTWD1 (GeneID 56986) | 3 | -0.977 | 62.5 |
| OXLD1 (GeneID 339229) | 1 | 0.594 | 93.7 |
| OXLD1 (GeneID 339229) | 2 | 0.908 | 99.9 |
| OXLD1 (GeneID 339229) | 3 | -0.0924 | 80 |
| ZNF621 (GeneID 285268) | 1 | -1.01 | 61.8 |
| ZNF621 (GeneID 285268) | 2 | 0.858 | 98.9 |
| ZNF621 (GeneID 285268) | 3 | 7.21 (active) | 225 |
| NUDT19 (GeneID 390916) | 1 | 1.14 | 105 |
| NUDT19 (GeneID 390916) | 2 | 0.911 | 100 |
| NUDT19 (GeneID 390916) | 3 | 1.5 | 112 |
| PRELID3B (GeneID 51012) | 1 | -0.147 | 79 |
| PRELID3B (GeneID 51012) | 2 | -2.11 | 40 |
| PRELID3B (GeneID 51012) | 3 | -1.07 | 60.5 |
| PLA2G2A (GeneID 5320) | 1 | -0.573 | 70.5 |
| PLA2G2A (GeneID 5320) | 2 | -0.454 | 72.9 |
| PLA2G2A (GeneID 5320) | 3 | 0.00221 | 81.9 |
| COBLL1 (GeneID 22837) | 1 | -0.174 | 78.4 |
| COBLL1 (GeneID 22837) | 2 | -0.0164 | 81.6 |
| COBLL1 (GeneID 22837) | 3 | -0.356 | 74.8 |
| ACTL8 (GeneID 81569) | 1 | 0.333 | 88.5 |
| ACTL8 (GeneID 81569) | 2 | 0.308 | 88 |
| ACTL8 (GeneID 81569) | 3 | -0.215 | 77.6 |
